Measured values published in PubChem BioAssay AID540256 (National Center for Advancing Translational Sciences (NCATS), 2011).
Hit rate of the full screen: of about 300,000 compounds, about 3,700 (1.2%) were called active. The shares of active, inactive and inconclusive entries below differ from those in the screen. Calls follow the shape of the full dose curve; tested in HEK293 cells. Potencies beside an inconclusive call are fits to weak or partial responses and may not hold up.

assay: qHTS for Inhibitors of binding or entry into cells for Lassa Virus; details: Lassa virus pseudotype entry inhibition, cell reporter; activity change, negative = inhibition: at 37.9 µM (top of the series) unless noted; also: nearly all actives have a fitted effect of over 50% in size
% is scaled to controls: 0 for no effect and ±100 for the full control effect; potency is read from the fitted curve at half-maximal effect.

SMILES	activity change, negative = inhibition	Potency
CC1(C)CC(CC(=O)Nc2ccc([N+](=O)[O-])cc2)C(=O)O1 (stereo not given)	inactive: 4.48%	–
COc1ccc(CN2CCNC(=O)C2CC(=O)N(C)Cc2ccno2)c(F)c1 (stereo not given)	inactive: -8.71%	–
O=C(NC1CC1)c1ccc(-c2ccccc2)cc1	inactive: 17.2%	–
CN(C(=O)C=Cc1ccccc1)c1ccccc1	inactive: 2.77% [at 46.1 µM]	–
Cc1ccc(C(=O)COC(=O)c2cccc(NC(=O)c3ccc([N+](=O)[O-])cc3[N+](=O)[O-])c2)cc1	–	inconclusive: 5.17 µM [activator, single point]
CCCCN(C(=O)c1ccc(Cl)cc1)C1CC2CCC(C1)N2C (stereo not given)	–	inconclusive: 29.1 µM [inhibitor, single point]
Cc1ccc(C)c(N2CCN(CCCNC(=O)c3ccc4nc(C(C)C)oc4c3)CC2)c1	–	inconclusive: 10 µM [inhibitor, partial curve, poor fit]
COc1ccc(CCC(=O)OCC(=O)N(C)c2c(N)n(Cc3ccccc3)c(=O)[nH]c2=O)cc1	–	inconclusive: 35.5 µM [activator, single point]
CC(C)c1nn2c(=O)cc(COC(=O)COc3ccccc3F)nc2s1	inactive: -5.49% [at 46.1 µM]	–
Cc1ccc(Cn2c(S(=O)(=O)O)nc3ccccc32)cc1	–	inconclusive: 14.1 µM [activator, single point]
COC(=O)/C=C1\N/C(=N\c2nc(C)cc(C)n2)N(c2ccc(C)c(C)c2)C1=O	–	inconclusive: 7.94 µM [inhibitor, partial curve, poor fit]
Cc1oc2c(c(C)cc3oc(=O)c(CC(=O)NCCc4ccc(Cl)cc4)c(C)c32)c1C	inactive: 8.94% [at 46.1 µM]	–
CCOc1ccc(NC(=O)c2ccccc2NC(=O)CN(C)CC(=O)Nc2ccc(C)cc2)cc1	inactive: -18.8%	–
COc1ccc(OC)c(NC(=O)C2CCN(Cc3cnn(-c4ccccc4)c3-n3cccc3)CC2)c1	–	inconclusive: 29.1 µM [inhibitor, single point]
Cc1ccc(CNc2nc3nc(C)c(Cl)c(C)n3n2)cc1	–	inconclusive: 1 µM [activator, full curve]
O=S(=O)(c1ccc(Br)cc1)N1CCn2cccc2C1c1ccc(Br)cc1 (stereo not given)	inactive: -10% [at 46.1 µM]	–
COc1ccc(N(C(=O)c2cccnc2)S(=O)(=O)c2cccc([N+](=O)[O-])c2)cc1	–	inconclusive: 6.31 µM [inhibitor, single point]
Cc1nn(-c2ccccc2)nc1-c1nnc(-c2ccc(C(F)(F)F)cc2)o1	inactive: -4.11%	–
COc1ccc(Cl)cc1NC(=O)CN(C1CCCCC1)S(C)(=O)=O	inactive: 11.7%	–
O=C(CSc1nc2c(sc3ccccc32)c(=O)n1CCCN1CCOCC1)NCC1CCCO1 (stereo not given)	–	inconclusive: 35.5 µM [activator, single point]

Quoted from the listing for reference:
SMILES	activity change, negative = inhibition	Potency
Cc1ccc(C)c(N2CCN(CCCNC(=O)c3ccc4nc(C(C)C)oc4c3)CC2)c1	–	inconclusive: 10 µM [inhibitor, partial curve, poor fit]
COc1ccc(CCC(=O)OCC(=O)N(C)c2c(N)n(Cc3ccccc3)c(=O)[nH]c2=O)cc1	–	inconclusive: 35.5 µM [activator, single point]
